Results on one molecule are retold here after PMC3429506, “Screening for Novel LRRK2 Inhibitors Using a High-Throughput TR-FRET Cellular Assay for LRRK2 Ser935 Phosphorylation” (PLoS ONE, 2012).

Sequences of proteins named here, by UniProt entry; tags and fusion partners are left off.
UniProt Q5S007, whole entry G2019S: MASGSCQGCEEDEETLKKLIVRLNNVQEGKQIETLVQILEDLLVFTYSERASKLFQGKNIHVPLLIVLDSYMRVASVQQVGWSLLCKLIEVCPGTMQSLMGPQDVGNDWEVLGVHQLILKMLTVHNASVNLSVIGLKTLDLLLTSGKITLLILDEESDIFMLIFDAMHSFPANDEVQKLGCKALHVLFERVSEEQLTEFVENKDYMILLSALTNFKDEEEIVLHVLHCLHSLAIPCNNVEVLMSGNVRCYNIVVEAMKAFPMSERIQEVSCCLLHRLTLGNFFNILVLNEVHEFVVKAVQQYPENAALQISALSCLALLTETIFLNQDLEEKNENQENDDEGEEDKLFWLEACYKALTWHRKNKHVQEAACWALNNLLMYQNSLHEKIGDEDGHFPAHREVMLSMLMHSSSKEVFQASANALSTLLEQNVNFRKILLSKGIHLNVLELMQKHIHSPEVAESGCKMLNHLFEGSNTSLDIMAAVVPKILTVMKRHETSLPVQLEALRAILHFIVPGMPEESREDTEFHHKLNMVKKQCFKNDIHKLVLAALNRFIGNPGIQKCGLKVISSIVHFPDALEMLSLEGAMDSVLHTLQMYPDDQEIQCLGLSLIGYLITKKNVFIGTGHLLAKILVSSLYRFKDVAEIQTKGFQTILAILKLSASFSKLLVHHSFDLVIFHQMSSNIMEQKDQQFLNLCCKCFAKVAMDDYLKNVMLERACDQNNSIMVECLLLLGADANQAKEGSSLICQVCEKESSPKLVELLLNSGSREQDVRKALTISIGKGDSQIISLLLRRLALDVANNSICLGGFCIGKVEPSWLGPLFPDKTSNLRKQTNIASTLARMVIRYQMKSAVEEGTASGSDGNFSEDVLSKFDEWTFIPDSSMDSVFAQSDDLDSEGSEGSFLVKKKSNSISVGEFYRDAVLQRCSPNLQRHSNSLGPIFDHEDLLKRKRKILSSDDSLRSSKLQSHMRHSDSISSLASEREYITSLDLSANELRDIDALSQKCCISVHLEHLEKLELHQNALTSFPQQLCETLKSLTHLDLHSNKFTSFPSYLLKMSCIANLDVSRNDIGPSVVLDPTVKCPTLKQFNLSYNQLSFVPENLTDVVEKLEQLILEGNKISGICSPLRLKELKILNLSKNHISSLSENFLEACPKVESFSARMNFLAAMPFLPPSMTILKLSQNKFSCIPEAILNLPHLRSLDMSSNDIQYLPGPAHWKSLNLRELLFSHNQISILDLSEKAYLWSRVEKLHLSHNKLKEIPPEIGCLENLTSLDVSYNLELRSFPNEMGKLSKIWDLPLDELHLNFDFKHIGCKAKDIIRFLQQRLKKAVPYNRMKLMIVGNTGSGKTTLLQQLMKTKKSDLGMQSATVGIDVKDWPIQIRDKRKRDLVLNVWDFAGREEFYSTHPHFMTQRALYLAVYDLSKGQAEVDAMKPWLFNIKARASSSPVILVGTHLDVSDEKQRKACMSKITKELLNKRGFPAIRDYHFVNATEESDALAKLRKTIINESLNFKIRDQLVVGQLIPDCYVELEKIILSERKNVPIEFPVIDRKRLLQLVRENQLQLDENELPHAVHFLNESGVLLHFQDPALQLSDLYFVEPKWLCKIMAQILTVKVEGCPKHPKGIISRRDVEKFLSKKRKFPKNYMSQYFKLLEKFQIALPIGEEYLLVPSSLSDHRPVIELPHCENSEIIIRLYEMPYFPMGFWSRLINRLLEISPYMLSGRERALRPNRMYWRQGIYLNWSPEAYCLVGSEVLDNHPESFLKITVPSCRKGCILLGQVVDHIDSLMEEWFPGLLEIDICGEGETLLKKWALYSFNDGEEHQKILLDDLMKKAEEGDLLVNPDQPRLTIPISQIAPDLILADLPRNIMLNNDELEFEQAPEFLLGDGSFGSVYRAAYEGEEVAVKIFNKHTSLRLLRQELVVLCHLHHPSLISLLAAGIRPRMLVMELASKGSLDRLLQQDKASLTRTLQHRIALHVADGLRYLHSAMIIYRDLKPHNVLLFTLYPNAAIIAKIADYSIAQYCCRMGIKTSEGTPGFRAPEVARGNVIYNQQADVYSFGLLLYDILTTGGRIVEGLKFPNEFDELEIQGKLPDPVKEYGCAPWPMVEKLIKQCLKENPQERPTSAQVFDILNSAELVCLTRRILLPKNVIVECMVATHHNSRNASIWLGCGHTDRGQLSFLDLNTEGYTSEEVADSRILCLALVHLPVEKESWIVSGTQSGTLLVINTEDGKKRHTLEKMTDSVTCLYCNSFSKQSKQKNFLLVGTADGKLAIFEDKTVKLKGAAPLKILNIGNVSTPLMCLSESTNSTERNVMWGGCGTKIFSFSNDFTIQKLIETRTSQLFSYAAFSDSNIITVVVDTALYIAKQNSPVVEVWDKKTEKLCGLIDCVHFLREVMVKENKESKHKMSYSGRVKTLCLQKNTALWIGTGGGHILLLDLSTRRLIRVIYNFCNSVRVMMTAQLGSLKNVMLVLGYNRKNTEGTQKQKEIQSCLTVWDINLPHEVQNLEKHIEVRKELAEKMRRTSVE
UniProt Q5S007, whole entry A2016T/G2019S: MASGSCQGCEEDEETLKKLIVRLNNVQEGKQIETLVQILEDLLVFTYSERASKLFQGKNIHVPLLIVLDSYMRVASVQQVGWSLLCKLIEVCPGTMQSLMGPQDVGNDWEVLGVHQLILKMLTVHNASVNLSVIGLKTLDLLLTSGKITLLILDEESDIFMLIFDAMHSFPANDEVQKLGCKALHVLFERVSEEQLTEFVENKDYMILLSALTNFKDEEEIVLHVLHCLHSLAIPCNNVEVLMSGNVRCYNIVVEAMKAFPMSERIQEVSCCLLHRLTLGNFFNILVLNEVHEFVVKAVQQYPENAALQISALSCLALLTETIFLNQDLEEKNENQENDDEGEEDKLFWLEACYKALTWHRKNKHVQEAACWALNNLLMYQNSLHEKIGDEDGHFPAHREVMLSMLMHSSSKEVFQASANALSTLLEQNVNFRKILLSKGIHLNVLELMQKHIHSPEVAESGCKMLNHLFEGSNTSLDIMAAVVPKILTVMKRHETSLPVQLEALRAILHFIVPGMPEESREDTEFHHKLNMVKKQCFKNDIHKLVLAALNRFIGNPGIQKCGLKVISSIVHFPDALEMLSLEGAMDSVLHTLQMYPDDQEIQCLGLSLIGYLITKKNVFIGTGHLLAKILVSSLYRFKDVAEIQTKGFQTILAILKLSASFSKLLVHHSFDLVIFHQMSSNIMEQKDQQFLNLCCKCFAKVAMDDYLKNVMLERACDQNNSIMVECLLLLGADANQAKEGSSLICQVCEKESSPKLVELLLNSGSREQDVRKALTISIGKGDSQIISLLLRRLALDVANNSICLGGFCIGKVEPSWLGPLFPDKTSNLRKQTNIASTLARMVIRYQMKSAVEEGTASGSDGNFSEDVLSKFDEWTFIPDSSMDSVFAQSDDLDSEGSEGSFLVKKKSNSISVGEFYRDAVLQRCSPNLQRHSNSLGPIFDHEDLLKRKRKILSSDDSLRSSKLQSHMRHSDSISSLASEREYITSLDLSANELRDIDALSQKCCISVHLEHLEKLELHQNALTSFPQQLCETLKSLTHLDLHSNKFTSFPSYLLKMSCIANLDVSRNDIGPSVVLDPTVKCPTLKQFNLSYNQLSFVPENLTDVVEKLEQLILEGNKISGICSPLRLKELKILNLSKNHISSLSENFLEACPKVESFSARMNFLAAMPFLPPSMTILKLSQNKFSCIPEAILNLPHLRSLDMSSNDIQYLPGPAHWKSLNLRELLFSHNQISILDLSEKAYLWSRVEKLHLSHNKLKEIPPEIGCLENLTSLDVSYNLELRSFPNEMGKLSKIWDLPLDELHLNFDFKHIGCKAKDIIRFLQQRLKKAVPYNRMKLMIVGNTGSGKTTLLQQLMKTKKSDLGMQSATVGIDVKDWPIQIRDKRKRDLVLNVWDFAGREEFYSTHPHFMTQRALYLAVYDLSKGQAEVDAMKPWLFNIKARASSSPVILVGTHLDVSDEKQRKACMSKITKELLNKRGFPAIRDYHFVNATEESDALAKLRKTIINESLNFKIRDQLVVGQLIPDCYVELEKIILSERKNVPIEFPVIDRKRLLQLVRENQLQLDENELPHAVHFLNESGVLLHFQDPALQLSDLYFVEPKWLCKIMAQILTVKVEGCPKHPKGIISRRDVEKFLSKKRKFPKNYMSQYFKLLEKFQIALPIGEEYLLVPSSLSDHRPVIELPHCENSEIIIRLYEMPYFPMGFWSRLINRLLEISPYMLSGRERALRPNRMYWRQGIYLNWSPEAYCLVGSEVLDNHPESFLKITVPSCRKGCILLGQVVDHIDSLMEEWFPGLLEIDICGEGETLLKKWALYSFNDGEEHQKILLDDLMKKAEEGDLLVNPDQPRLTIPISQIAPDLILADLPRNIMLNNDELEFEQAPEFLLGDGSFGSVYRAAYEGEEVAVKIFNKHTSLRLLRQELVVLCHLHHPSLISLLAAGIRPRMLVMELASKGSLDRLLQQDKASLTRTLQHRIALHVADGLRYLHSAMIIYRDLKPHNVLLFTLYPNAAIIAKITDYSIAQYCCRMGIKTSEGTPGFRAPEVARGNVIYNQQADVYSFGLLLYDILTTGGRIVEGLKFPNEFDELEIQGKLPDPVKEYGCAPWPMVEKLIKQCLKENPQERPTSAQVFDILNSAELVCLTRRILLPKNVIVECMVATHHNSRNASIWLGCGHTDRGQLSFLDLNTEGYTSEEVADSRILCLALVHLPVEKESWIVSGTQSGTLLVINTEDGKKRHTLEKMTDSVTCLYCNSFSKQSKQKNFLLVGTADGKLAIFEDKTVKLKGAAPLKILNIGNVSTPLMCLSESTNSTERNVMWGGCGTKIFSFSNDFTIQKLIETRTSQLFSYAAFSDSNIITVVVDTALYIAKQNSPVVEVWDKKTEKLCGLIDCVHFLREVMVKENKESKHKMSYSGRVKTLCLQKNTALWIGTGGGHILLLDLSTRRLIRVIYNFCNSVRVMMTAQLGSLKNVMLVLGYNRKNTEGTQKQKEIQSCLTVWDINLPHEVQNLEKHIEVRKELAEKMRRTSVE

Common to all, as to assay type: cell-based
One assay deals with LRRK2 G2019S (Homo sapiens, UniProt Q5S007, G2019S). As to the kind of experiment: TR-FRET cellular assay for LRRK2 Ser935 phosphorylation, SH-SY5Y cells, BacMam LRRK2-GFP G2019S (incl. Tocriscreen Mini library screen and follow-up). Set-up: This high-throughput assay utilizes cells expressing full-length human LRRK2 with a C-terminal GFP tag (LRRK2-GFP); host or cells: SH-SY5Y cells transduced with BacMam. As to the method: U-2 OS cells are maintained in growth medium (McCoy’s 5A supplemented with 10% dialyzed FBS (dFBS), 10 mM HEPES, 0.1 mM NEAA, 1 mM Sodium Pyruvate, and 100 U/mL Penicillin/100 µg/mL Streptomycin). HEK293T cells are maintained in DMEM with 10% dFBS, 10 mM HEPES, 0.1 mM NEAA and 100 U/mL Penicillin/100 µg/mL Streptomycin. SH-SY5Y cells are maintained in DMEM/F-12 medium supplemented with 10% dFBS and 100 U/mL Penicillin/100 µg/mL Streptomycin. […] GIBCO® human neural stem cells (hNSCs) were propagated as an adherent culture in StemPro® NSC SFM according to the manufacturer’s recommended protocol (Life Technologies). […]
Transduced cells in the 384-well assay plate were incubated with indicated inhibitors (5X, 5 µL/well) for 60 to 90 minutes. […] Z′-factor values were calculated as: Z′-factor = 1 - [(3 × stdevno virus +3 × stdevmaxvirus)/(avgmaxvirus – avgno-virus)]. […]
40 nL of 10 mM Tocris library compounds in DMSO were dispensed into each well of the assay plate by the ECHO system. […] The percent inhibition is calculated as: [(average emission ratios of DMSO control wells – average emission ratios of compound wells)/(average emission ratios of DMSO control wells – average emission ratios of LRRK2-IN-1 treated wells)] * 100. […] Z′-factor value was calculated as: Z′-factor = 1 - [(3 × stdevLRRK2-IN-1+3 × stdevDMSO)/(avgDMSO – avgLRRK2-IN-1)]. […]
(In general: TR-FRET usually uses a lanthanide donor and a delayed reading to cut background.)

A further assay has as its target T1, LRRK2 A2016T/G2019S (Homo sapiens, UniProt Q5S007, A2016T/G2019S).
T1 construct: expressed in transfected cells
As to the kind of experiment: Immunoprecipitation/Western analysis of LRRK2 phosphorylation in T-REx HEK293 cells expressing inhibitor desensitizing mutant. The settings on record: 20 µM, Figure 6 IRM. On the procedure:
(§1) Immunoblot analysis: BacMam LRRK2-GFP transduced U-2 OS or SH-SY5Y cells (10^7 cells) were left untreated or treated with 3 µM LRRK2-IN-I for 90 min. For lysate preparation, the cells were washed once with ice-cold PBS and lysed by addition of ice-cold lysis buffer (20 mM Tris-HCl, pH 7.4, 1% NP-40, 5 mM EDTA, 5 mM NaF, 150 mM NaCl, and 1∶100 of protease and phosphatase inhibitor cocktails). The lysate was cleared of debris by centrifugation. Equal amount of total protein was loaded onto each lane for SDS-PAGE (3–8% Tris Acetate). The proteins were transferred onto nitrocellulose membrane using the iBLOT® dry blotting system (Life Technologies) according to manufacturer’s protocol. The membranes were blocked and incubated with a primary antibody against LRRK2 (Cell Signaling Technologies), followed by incubation with alkaline phosphatase-conjugated secondary antibody (WesternBreeze® chromogenic Kit, Life Technologies). The blot was developed by using the chromogenic BCIP/NBT substrate (WesternBreeze® chromogenic Kit, Life Technologies). Immunoprecipitation analysis: HEK293 cells were induced to express GFP-LRRK2 G2019S by inclusion of doxycycline in the culture media at 1 µg/mL. Two days post induction, cells were treated for 90 minutes in the presence of 20 µM of compound or DMSO vehicle control. […]

The target of another assay is T2, GFP-LRRK2 G2019S (Homo sapiens, UniProt Q5S007, G2019S).
T2 construct: expressed in transfected cells
In words: Immunoprecipitation/Western analysis of LRRK2 phosphorylation at Ser910, Ser935, Ser955, Ser973 in HEK293 T-REx GFP-LRRK2 G2019S cells. On the procedure: as §1

With `O=C1NC(=O)c2c1c(-c1ccccc1)cc1[nH]c3ccc(O)cc3c21` [PD 407824], the “Cellular TR-FRET Assay Max % Inhibition” value at LRRK2 G2019S stood at 65%. Further, the “%Inhibition Initial screen” value on LRRK2 G2019S (20 µM) was 67.3%. Moreover, on LRRK2 A2016T/G2019S, the “effect of desensitizing mutation A2016T/G2019S on compound-induced dephosphorylation (IP-Western)” value is “did not show decreased sensitivity”. In addition, on GFP-LRRK2 G2019S, the “effect on phosphorylation of Ser910, Ser935, Ser955 and Ser973 (IP-Western)” value is “inhibited phosphorylation of Ser910, Ser935, Ser955 and Ser973”.
